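A cell-based FRET test of anthrax lethal toxin entry, tracked through the 460 nm emission signal; the cell line is not named here. Each compound was tested as a concentration series from about 0.0005 to 40 µM. The number is the fitted AC50 of the 460 nm signal alone; lower values mean a more potent effect. A falling signal goes with compounds filed as inhibitors or cytotoxic, a rising one with activators or fluorescent compounds (inferred from the filed classes).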

Values are in µM. Common to all entries: measured here: 460 nm channel. This is a side read-out of the assay, for part of the compounds, not drawn at random. A potency from a partial, single-point or poor curve is only a rough figure. The first word of each remark tells which way the curve ran; it can be opposite to the aim of the assay.

{"compound": "CCNc1ncc2nc(CCc3ccccc3)c(=O)n(C)c2n1", "AC50 (µM)": "12.59", "remark": "rising, partial curve"}
{"compound": "COc1ncc2nc(-c3ccc(Cl)cc3)c(=O)n(Cc3cccs3)c2n1", "AC50 (µM)": "10", "remark": "rising, single point"}
{"compound": "C[N+](C)(C)CC#CCN1CCCC1=O", "AC50 (µM)": "12.59", "remark": "falling, single point"}
{"compound": "Cn1c(C(=O)NCCc2c[nH]c3ccccc23)cc2sccc21", "AC50 (µM)": "3.162", "remark": "falling, single point"}
{"compound": "O=c1c(-c2ccc(F)cc2)nc2cnc(N3CCOCC3)nc2n1Cc1ccc(F)cc1", "AC50 (µM)": "0.07943", "remark": "rising, full curve"}
{"compound": "O=c1ccc2c(OCCCCc3ccccc3)c3ccoc3cc2o1", "AC50 (µM)": "3.981", "remark": "falling, full curve, poor fit"}
{"compound": "CN(C)c1ccnc(SCc2ccccc2Cl)c1C#N", "AC50 (µM)": "10", "remark": "falling, partial curve"}
{"compound": "CC(C)Cn1c(N)c(C(=O)NCC2CCCO2)c2nc3ccccc3nc21", "stereo": "centres undefined", "AC50 (µM)": "12.59", "remark": "rising, partial curve"}
{"compound": "Nc1c(C(=O)Nc2ccc3c(c2)OCCO3)nnn1CCc1ccccc1", "AC50 (µM)": "10", "remark": "falling, partial curve"}
{"compound": "O=C(Nc1ccc(-c2cn3ccsc3n2)cc1)c1ccc(F)c(S(=O)(=O)N2CCOCC2)c1", "AC50 (µM)": "31.62", "remark": "falling, single point"}
{"compound": "COc1ncc2nc(-c3ccccc3)c(=O)n(Cc3cccs3)c2n1", "AC50 (µM)": "7.943", "remark": "rising, partial curve"}
{"compound": "Cc1csc(=Nc2ccc(S(=O)(=O)N3CCOCC3)cc2)n1Cc1ccco1", "AC50 (µM)": "31.62", "remark": "falling, single point"}
{"compound": "CSc1ccc(Cn2nnc(C(=O)NCc3ccccc3)c2N)cc1", "AC50 (µM)": "15.85", "remark": "falling, partial curve"}
{"compound": "COc1ccc(Nc2ncnc3c2cnn3-c2ccccc2)cc1OC", "AC50 (µM)": "5.012", "remark": "falling, full curve"}
{"compound": "N#Cc1cc2ccc(N3CCOCC3)cc2cc1C#N", "AC50 (µM)": "10", "remark": "rising, partial curve"}
{"compound": "CCOC(=O)c1cc2ccc(OC(=O)c3ccco3)cc2oc1=O", "AC50 (µM)": "7.943", "remark": "rising, partial curve"}
{"compound": "COc1ccc(OC)c(NC(=O)Cn2cc(C#N)c3cc(Br)ccc32)c1", "AC50 (µM)": "5.012", "remark": "falling, full curve, poor fit"}
{"compound": "COc1ccc(OC)c(-n2cnnn2)c1", "AC50 (µM)": "1.259", "remark": "falling, single point"}
{"compound": "COc1ccc(NS(=O)(=O)c2cc(C)ccc2NC(=O)c2cc(C)oc2C)cc1", "AC50 (µM)": "3.162", "remark": "falling, partial curve"}
{"compound": "O=C(CN1CCN(C2CCCCC2)CC1)Nc1ccccc1N1CCCCC1", "AC50 (µM)": "12.59", "remark": "falling, partial curve"}
{"compound": "COc1ccc(OC)c(NC(=O)C2COc3ccccc3O2)c1", "stereo": "centres undefined", "AC50 (µM)": "10", "remark": "falling, partial curve"}
{"compound": "COc1ccc(C(=O)N2CCC3(CCCN(c4ncccn4)C3)CC2)cc1", "AC50 (µM)": "31.62", "remark": "rising, single point"}

For reference, 2 entries once more:

Compound,AC50 (µM),remark
CSc1ccc(Cn2nnc(C(=O)NCc3ccccc3)c2N)cc1,15.85,"falling, partial curve"
CCOC(=O)c1cc2ccc(OC(=O)c3ccco3)cc2oc1=O,7.943,"rising, partial curve"

From PubChem BioAssay record AID912 (NCATS, 2007).